Results are given in words; binding and its absence hold for the method and conditions named. Binding seen in cells or lysates may run through a third protein. A result given as binding can be weak or reduced; the word gives no strength.
Target: HA-tagged ATF6β (UniProt Q99941)
Test: co-IP

By UniProt entry, the sequences of proteins in these tests, tags left out. Where a name states a change or a piece, a line headed by the entry shows the natural chain unless it says otherwise.
UniProt Q99941, whole entry, stated change not applied: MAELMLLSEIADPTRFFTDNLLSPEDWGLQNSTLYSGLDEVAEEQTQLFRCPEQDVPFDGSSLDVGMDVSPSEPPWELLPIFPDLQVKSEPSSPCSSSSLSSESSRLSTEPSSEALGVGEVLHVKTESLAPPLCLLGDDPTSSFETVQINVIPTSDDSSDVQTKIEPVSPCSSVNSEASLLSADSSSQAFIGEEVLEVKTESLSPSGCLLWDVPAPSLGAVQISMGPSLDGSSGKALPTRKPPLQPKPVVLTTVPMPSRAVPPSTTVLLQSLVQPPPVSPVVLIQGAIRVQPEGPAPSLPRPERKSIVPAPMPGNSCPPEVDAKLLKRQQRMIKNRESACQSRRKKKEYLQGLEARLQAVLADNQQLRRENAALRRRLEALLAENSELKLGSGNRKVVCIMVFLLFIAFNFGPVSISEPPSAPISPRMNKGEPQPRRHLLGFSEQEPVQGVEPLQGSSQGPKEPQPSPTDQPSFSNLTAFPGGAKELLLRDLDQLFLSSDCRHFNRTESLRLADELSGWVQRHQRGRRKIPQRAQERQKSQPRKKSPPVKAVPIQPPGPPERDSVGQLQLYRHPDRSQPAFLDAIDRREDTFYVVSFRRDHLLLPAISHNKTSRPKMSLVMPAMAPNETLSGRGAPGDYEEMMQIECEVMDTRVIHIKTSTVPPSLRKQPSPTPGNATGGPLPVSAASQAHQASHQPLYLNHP

Substance: ROP18 kinase dead (D409A mutant), Toxoplasma gondii rhoptry protein 18 (from UniProt Q2PAY2) (enzyme)
- binding: binds
